According to the supplement of paper PMC10338343:
± gives the standard deviation. Only a part is listed here, and it is no random draw. The uncertainty is large for many entries. This is one part of the list.

Experiments:
[1] = system: MIWI (PIWIL1) piRISC loaded with L1MC piRNA (30 nt); experiment: pre-steady-state target cleavage rate (min^-1); higher = faster piRNA-guided slicing of the target; settings: guide: L1MC piRNA 5'p-UAACUAAAUACUAUGCAAGCUGUAGGUCCU
In short: (§1)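 The pre-steady-state cleavage rate was calculated from a burst-and-steady-state fit. Data came from Cleave-'n-Seq, in which […] transcribed, DNA-blocked target RNA library was mixed with 1 nM active affinity-purified piRISC carrying one synthetic guide, with or without 500 nM GTSF1 partner protein, in HEPES–potassium acetate buffer at 33 °C for 0–8 or 0–960 min. Uncleaved targets were sequenced and normalised to depth and to weakly complementary targets, three trials were pooled, and k3 was capped at 0.0001 min^-1.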

[2] = system: EfPiwi piRISC loaded with L1MC piRNA (26 nt); experiment: pre-steady-state target cleavage rate (min^-1); guide: L1MC piRNA 5'p-UAACUAAAUACUAUGCAAGCUGUAGG; higher = faster piRNA-guided slicing of the target
In short: as §1

[3] = system: MILI (PIWIL2) piRISC loaded with L1MC piRNA (26 nt); experiment: pre-steady-state target cleavage rate (min^-1); MIWI and MILI are mouse PIWI proteins and EfPiwi is from a freshwater sponge; tags in brackets are library labels; higher = faster piRNA-guided slicing of the target; settings: guide: L1MC piRNA 5'p-UAACUAAAUACUAUGCAAGCUGUAGG
In short: as §1

[4] = auxiliary factor: 500 nM mouse GTSF1
[5] = auxiliary factor: none (no GTSF1)
[6] = auxiliary factor: 500 nM Ephydatia muelleri Gtsf1
[7] = auxiliary factor: none (no Gtsf1)

| Sequence | pre-steady-state target cleavage rate [1, 4] | pre-steady-state target cleavage rate [1, 5] | pre-steady-state target cleavage rate [2, 6] | pre-steady-state target cleavage rate [2, 7] | pre-steady-state target cleavage rate [3, 5] | pre-steady-state target cleavage rate [3, 4] |
| --- | --- | --- | --- | --- | --- | --- |
| UCCUGGAUGUGCUUGCUAAGUAUUUAGUUA | 0.00289 ± 0.0057 | 0.00181 ± 0.0048 | 0.00158 ± 0.0046 | 0.000836 ± 0.012 |  |  |
| UCCUGGAACAGCUUGCAAAGUAUUUUCAAA | 0.0876 ± 0.018 | 0.00328 ± 0.002 | 0.00167 ± 0.0024 | 0.000176 ± 0.036 |  |  |
| UCCUGGAUGUCGAUGCAUAGUAUUUAGGUUA | 0.00244 ± 0.0049 | 0.000828 ± 0.01 | 0.000852 ± 0.0083 | 0.00017 ± 0.044 |  |  |
| UCCUGGAUGUCCUUGCAUAGUGAUUUAGUUA | 0.00314 ± 0.0046 | 0.00203 ± 0.0043 | 0.0018 ± 0.0043 | 0.000209 ± 0.036 |  |  |
| UCCUGGAUGUCGUUGCAUAGUAGUUUAGUUA | 0.000647 ± 0.013 | 0.00133 ± 0.0067 | 0.0087 ± 0.005 | 0.0025 ± 0.0048 |  |  |
| UCCUGGAUGUCGAUGCAUAGUAUAUAGAUA |  |  | 0.00114 ± 0.0062 |  | 0.000595 ± 0.0087 |  |
| UCCUGGUACAGCUUCGUUAGUAUUUAGAAA | 0.000576 ± 0.012 | 0.00015 ± 0.021 | 0.000281 ± 0.0094 | 0.000216 ± 0.033 |  |  |
| UCCUGGUACAGCUAGCAUAGUAUUAAGUUA | 0.378 ± 0.051 | 0.00772 ± 0.0027 | 0.00476 ± 0.0024 | 0.000964 ± 0.0078 |  |  |
| UCCUGGAUGUCGAUGCAUCAGUAUUUAGUUA |  |  |  | < 0.0001 | 0.000455 ± 0.012 |  |
| UCCUGCUACAGCUUGCCUAGUAUUUAGUUA | 0.886 ± 0.057 | 0.0207 ± 0.0037 | 0.00702 ± 0.0018 | 0.000612 ± 0.011 |  |  |
| UCCUGGUAGACCUUGCAUAGUAUUUAGUUA | 0.46 ± 0.042 | 0.00968 ± 0.0029 | 0.0182 ± 0.0065 | 0.000439 ± 0.028 |  |  |
| UCCUGGAUGUCGAAGCAUAGUAUAAUGUUA | 0.000293 ± 0.024 | 0.000496 ± 0.013 | 0.000354 ± 0.0083 | 0.000238 ± 0.03 |  |  |
| UCCUGCUACAGCUUGCAUAGUAUUUAGUUUA |  |  | 0.0608 ± 0.016 |  |  | 0.308 ± 0.018 |
| UCCUGGAUGUCCUUGCUUAGAAUUUAGUUA | 0.00139 ± 0.0083 | 0.000892 ± 0.0054 | 0.000134 ± 0.031 | 0.000123 ± 0.051 |  |  |
| UCCUGGAUCACGUUGCAUAGUAUUUAGUAA | 0.0198 ± 0.0044 | 0.00275 ± 0.0033 | 0.000725 ± 0.006 | 0.000312 ± 0.029 |  |  |
| UCCUGGAUGUCGAUGCAUAGUUUUUAGUUA | 0.00155 ± 0.0056 | 0.00133 ± 0.0055 | 0.00191 ± 0.0028 | 0.00052 ± 0.011 |  |  |
| UCCUGGAUGUGCUUGCAUCAGUAUUUAGUUA | 0.00212 ± 0.0054 | 0.000887 ± 0.013 | 0.00147 ± 0.0056 | 0.000526 ± 0.014 |  |  |
| UCCUGGAUGUCCUUGCAUACAUUUUAGUUA | 0.00159 ± 0.008 | 0.000739 ± 0.0075 | 0.000604 ± 0.0084 | 0.000256 ± 0.027 |  |  |
| UCCUGGAUCAGCUUGCAUAGUUAAUAGAAA | 0.00192 ± 0.0058 | 0.00115 ± 0.0038 | 0.000577 ± 0.0061 | 0.000279 ± 0.023 |  |  |
| UCCUGGAUGUCGAACCUAUGUAUUUAGUUA |  |  | 0.000177 ± 0.027 |  | 0.000455 ± 0.0084 |  |
| UCCUGGAUGUCGAAGCAUAGAUUUAGUUA | 0.000335 ± 0.032 | 0.00132 ± 0.0058 | 0.000757 ± 0.0071 | 0.000501 ± 0.012 |  |  |
| UCCUGGAUGUCCUUGCAAUGUAUUUAGUUA | 0.00194 ± 0.0057 | 0.0014 ± 0.0034 | 0.00104 ± 0.008 | 0.000269 ± 0.028 |  |  |
| UCCUGGAUCAGCUUGCUUAGUAUUUAGAUA |  |  | 0.00193 ± 0.0025 |  | 0.00237 ± 0.0035 |  |

Two entries from above, with tabs:
Sequence	pre-steady-state target cleavage rate [1, 4]	pre-steady-state target cleavage rate [1, 5]	pre-steady-state target cleavage rate [2, 6]	pre-steady-state target cleavage rate [2, 7]	pre-steady-state target cleavage rate [3, 5]	pre-steady-state target cleavage rate [3, 4]
UCCUGGAUGUGCUUGCUAAGUAUUUAGUUA	0.00289 ± 0.0057	0.00181 ± 0.0048	0.00158 ± 0.0046	0.000836 ± 0.012		
UCCUGGAACAGCUUGCAAAGUAUUUUCAAA	0.0876 ± 0.018	0.00328 ± 0.002	0.00167 ± 0.0024	0.000176 ± 0.036		
